The source of these data is the supplement of paper PMC8256030.

Where “and” joins values, the source holds several entries; their conditions need not be identical. Equal entries are not always repeated. The list shows a part of the results. This data set is noisy: repeats of one test often differ as much as different tests do.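 HEK293T cells were given each compound shortly before transfection with a reporter in which red mCherry is followed by the SARS-CoV-2 frameshift element and then GFP in the −1 frame, so GFP appears only after frameshifting.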

Assay [1] relates to SARS-CoV-2 -1 PRF reporter mCherry-FSE-GFP(-1). Nature of the assay: mCherry (red) intensity as percent of control; higher = higher upstream reporter expression. To be noted: 10 µM; 24 h; HEK293T.
For assay [2] the test system is unchanged. Kind of assay: percent effect, decrease of GFP/mCherry ratio (-1 PRF reporter) relative to controls; higher = stronger frameshift inhibition. Conditions: 10 µM; 24 h; HEK293T.

`S=C1SCN(Cc2ccccc2)CN1Cc1ccccc1` showed a mCherry in assay [1] of 75.2%. In addition, the percent effect in assay [2] is -2.13%.
In assay [1], `CO[C@H]1C[C@@H]2CC[C@@H](C)[C@@](O)(O2)C(=O)C(=O)N2CCCC[C@H]2C(=O)O[C@H]([C@H](C)C[C@@H]2CC[C@@H](O)[C@H](OC)C2)CC(=O)[C@H](C)/C=C(\C)[C@@H](O)[C@@H](OC)C(=O)[C@H](C)C[C@H](C)/C=C/C=C/C=C/1C` [Rapamune] came in with a mCherry of 103%. Moreover, the percent effect in assay [2] was -4.36%.
In the case of `COc1ccc2nc(NC(=O)Nc3ccccc3)sc2c1` [frentizole], the mCherry in assay [1] was 78%. The percent effect in assay [2] is -10.1%.
In turn, `C=CCNC(N)=S` [allylthiourea] registered a mCherry in assay [1] of 108%. Also, the percent effect in assay [2] stood at 0.0139%.
`CCC(C)(C)NCC(O)COc1ccccc1C#N` (stereo not given) [penirolol]: in assay [1], the mCherry was found to be 105%. Further, in assay [2], the percent effect is -7.52%.
For `c1ccc([C@H]2CN3CCSC3=N2)cc1`, in that order: 134% and -0.242%.
On the same counts, the results for `CC(C)NC(=N)NC(=N)Nc1ccc(Cl)cc1` [Proguanil] are 84.3% and -0.136%.
Consider `CCC(CC)(CC(=O)Nc1cccc(/C=C/c2nc(C3CCC3)cs2)c1)C(=O)O` [cinalukast], for which the mCherry in assay [1] was found to be 114%. For the same compound, the percent effect in assay [2] was -5.79%.
For `CCC1=C[C@@H]2CN(C1)Cc1c([nH]c3ccccc13)[C@@](C(=O)OC)(c1cc3c(cc1OC)N(C)[C@H]1[C@@](O)(C(=O)OC)[C@H](OC(C)=O)[C@]4(CC)C=CCN5CC[C@]31[C@@H]54)C2` [vinorelbine], in that order: 43.5% and -12.5%.
Take `[O-][n+]1cccc(CO)c1`: the mCherry in assay [1] was 92.8%. Besides, the percent effect in assay [2] came out at 0.191%.
As for `CCCCCCCCCCCCCCCCCC(=O)OC[C@H](COP(=O)(O)OC[C@H](N)C(=O)O)OC(=O)CCCCCCCCCCCCCCCCC` [Phosphatidylserine], the mCherry in assay [1] came to 84.8%. In assay [2], the percent effect is -7.12%.
As to `NC[C@H]1CC[C@H](C(=O)O)CC1` [Tranexamic acid], in assay [1], the mCherry amounted to 90%. In assay [2], the percent effect was -1.73%.
In the case of `C[C@H]1c2cccc(O)c2C(O)=C2C(=O)[C@]3(O)C(O)=C(C(N)=O)C(=O)[C@@H](N(C)C)[C@@H]3[C@@H](O)[C@@H]21` [Doxycycline], the mCherry in assay [1] is 64.5% and 71.6%. Also, the percent effect in assay [2] is 0.664% and -0.649%.
Consider `CC(C)(C)NC[C@H](O)COc1nsnc1N1CCOCC1`, for which the mCherry in assay [1] came out at 100%. Further, the percent effect in assay [2] was -3.84%.
In assay [1], `CCCCN(CCCC)CC(O)c1cc(Cl)cc2c1-c1ccc(Cl)cc1/C2=C/c1ccc(Cl)cc1` (stereo not given) [Benflumetol] had a mCherry of 109%. Besides, the percent effect in assay [2] is -2.63%.
As to `CC(=O)Nc1ccc(C(=O)O)cc1` [acedoben], the mCherry in assay [1] worked out at 129%. In addition, the percent effect in assay [2] came out at 3.75%.
For `Nc1ccn([C@@H]2CS[C@H](CO)O2)c(=O)n1` [lamivudine], in that order: 103% and -0.742%.
On the same counts, the results for `COc1cc(C(=O)NS(=O)(=O)c2ccccc2C)ccc1Cc1cn(C)c2ccc(NC(=O)OC3CCCC3)cc12` [Zafirlukast] are 77.4% and -1.85%.
`NC(CO)(CO)CO` [trometamol] registered a mCherry in assay [1] of 92.7%. Further, in assay [2], the percent effect was 7.44%.
The compound `CC1=C(/C=C/C(C)=C/C=C/C(C)=C/C=C/C=C(C)/C=C/C=C(C)/C=C/C2=C(C)C(=O)CCC2(C)C)C(C)(C)CCC1=O` [Canthaxanthin] yielded a mCherry in assay [1] of 78.7%. Besides, the percent effect in assay [2] was -1.65%.
In assay [1], `O=C(NNCS(=O)(=O)O)c1ccncc1` [methaniazide] displayed a mCherry of 94.5%. Further, the percent effect in assay [2] was -3.32%.
Take `COc1cc(CNC(=O)CCCC/C=C\C(C)C)ccc1O` [zucapsaicin]: the mCherry in assay [1] was found to be 83.6%. Besides, the percent effect in assay [2] is -5.52%.
`CC1(C)C2CCC1(CS(=O)(=O)O)C(=O)C2=Cc1ccc(C=C2C(=O)C3(CS(=O)(=O)O)CCC2C3(C)C)cc1` came in with a mCherry in assay [1] of 130%. Moreover, the percent effect in assay [2] was -5.47%.
For `CC(C)N(CCC(c1ccccc1)c1ccccc1)C(C)C` [diisopromine], in that order: 83.7% and 4.93%.
In assay [1], `CN(C)c1ccc(O)c2c1C[C@H]1C[C@H]3[C@H](N(C)C)C(=O)C(C(N)=O)=C(O)[C@@]3(O)C(=O)C1=C2O` [Minocycline] returned a mCherry of 106%. Moreover, the percent effect in assay [2] worked out at 3.86%.
As to `N[C@@H](CSCC(=O)O)C(=O)O` [carbocisteine], the mCherry in assay [1] was found to be 84.4%. In addition, the percent effect in assay [2] was -11.3%.
The compound `O=C1Cc2cc(CCN3CCN(c4nsc5ccccc45)CC3)c(Cl)cc2N1` gave a mCherry in assay [1] of 114%. For the same compound, the percent effect in assay [2] was 1.29%.
On the same counts, the results for `CC(C)[C@H]1CC[C@H](C)C[C@@H]1O` [racementhol] are 94.4% and -0.256%.
In assay [1], `COc1ccccc1N1CCN(CC(O)COc2cc(OC)c(OC)c(OC)c2)CC1` (stereo not given) [enciprazine] displayed a mCherry of 62.2%. Further, the percent effect in assay [2] amounted to 4.17%.
In assay [1], `CCOC(N)=O` [urethane] showed a mCherry of 102%. Further, the percent effect in assay [2] was -6.43%.
With `CCOCC(O)COc1ccc(NC(=O)CC[S+](C)C)cc1` (stereo not given) [suplatast tosilate], the mCherry in assay [1] was found to be 95.6%. Besides, the percent effect in assay [2] was -1.21%.
In assay [1], `O=C1N=C(N2CCOCC2)CN1c1ccc(Cl)cc1` [imepitoin] yielded a mCherry of 93.4%. Further, in assay [2], the percent effect was -0.879%.
As to `CN(C)CCCn1c(=O)c2ccccc2c2ccccc21` [fantridone], the mCherry in assay [1] turned out to be 102%. For the same compound, the percent effect in assay [2] is -7.96%.
With `CC=CC(=O)N(CC)c1ccccc1C`, in assay [1], the mCherry amounted to 130%. Moreover, the percent effect in assay [2] was 2.07%.
Regarding `C=N[C@@H](C(=O)N[C@@H]1C(=O)N2[C@@H]1SC(C)(C)[C@@H]2C(=O)O)c1ccccc1`, the mCherry in assay [1] was 81.6%. The percent effect in assay [2] was -2.74%.
